Results from doi:10.1101/2024.12.30.630684.
No constants are given. Whether binding was seen depends on the method and setting. Binding seen in cells or lysates may run through a third protein. Some entries that bind do so weakly or less than the wild type. One block for each molecule: values may come before it.

By UniProt entry, the sequences of proteins in these tests, tags left out. Residues count along the entry.
UniProt O88207, residues 37-1838: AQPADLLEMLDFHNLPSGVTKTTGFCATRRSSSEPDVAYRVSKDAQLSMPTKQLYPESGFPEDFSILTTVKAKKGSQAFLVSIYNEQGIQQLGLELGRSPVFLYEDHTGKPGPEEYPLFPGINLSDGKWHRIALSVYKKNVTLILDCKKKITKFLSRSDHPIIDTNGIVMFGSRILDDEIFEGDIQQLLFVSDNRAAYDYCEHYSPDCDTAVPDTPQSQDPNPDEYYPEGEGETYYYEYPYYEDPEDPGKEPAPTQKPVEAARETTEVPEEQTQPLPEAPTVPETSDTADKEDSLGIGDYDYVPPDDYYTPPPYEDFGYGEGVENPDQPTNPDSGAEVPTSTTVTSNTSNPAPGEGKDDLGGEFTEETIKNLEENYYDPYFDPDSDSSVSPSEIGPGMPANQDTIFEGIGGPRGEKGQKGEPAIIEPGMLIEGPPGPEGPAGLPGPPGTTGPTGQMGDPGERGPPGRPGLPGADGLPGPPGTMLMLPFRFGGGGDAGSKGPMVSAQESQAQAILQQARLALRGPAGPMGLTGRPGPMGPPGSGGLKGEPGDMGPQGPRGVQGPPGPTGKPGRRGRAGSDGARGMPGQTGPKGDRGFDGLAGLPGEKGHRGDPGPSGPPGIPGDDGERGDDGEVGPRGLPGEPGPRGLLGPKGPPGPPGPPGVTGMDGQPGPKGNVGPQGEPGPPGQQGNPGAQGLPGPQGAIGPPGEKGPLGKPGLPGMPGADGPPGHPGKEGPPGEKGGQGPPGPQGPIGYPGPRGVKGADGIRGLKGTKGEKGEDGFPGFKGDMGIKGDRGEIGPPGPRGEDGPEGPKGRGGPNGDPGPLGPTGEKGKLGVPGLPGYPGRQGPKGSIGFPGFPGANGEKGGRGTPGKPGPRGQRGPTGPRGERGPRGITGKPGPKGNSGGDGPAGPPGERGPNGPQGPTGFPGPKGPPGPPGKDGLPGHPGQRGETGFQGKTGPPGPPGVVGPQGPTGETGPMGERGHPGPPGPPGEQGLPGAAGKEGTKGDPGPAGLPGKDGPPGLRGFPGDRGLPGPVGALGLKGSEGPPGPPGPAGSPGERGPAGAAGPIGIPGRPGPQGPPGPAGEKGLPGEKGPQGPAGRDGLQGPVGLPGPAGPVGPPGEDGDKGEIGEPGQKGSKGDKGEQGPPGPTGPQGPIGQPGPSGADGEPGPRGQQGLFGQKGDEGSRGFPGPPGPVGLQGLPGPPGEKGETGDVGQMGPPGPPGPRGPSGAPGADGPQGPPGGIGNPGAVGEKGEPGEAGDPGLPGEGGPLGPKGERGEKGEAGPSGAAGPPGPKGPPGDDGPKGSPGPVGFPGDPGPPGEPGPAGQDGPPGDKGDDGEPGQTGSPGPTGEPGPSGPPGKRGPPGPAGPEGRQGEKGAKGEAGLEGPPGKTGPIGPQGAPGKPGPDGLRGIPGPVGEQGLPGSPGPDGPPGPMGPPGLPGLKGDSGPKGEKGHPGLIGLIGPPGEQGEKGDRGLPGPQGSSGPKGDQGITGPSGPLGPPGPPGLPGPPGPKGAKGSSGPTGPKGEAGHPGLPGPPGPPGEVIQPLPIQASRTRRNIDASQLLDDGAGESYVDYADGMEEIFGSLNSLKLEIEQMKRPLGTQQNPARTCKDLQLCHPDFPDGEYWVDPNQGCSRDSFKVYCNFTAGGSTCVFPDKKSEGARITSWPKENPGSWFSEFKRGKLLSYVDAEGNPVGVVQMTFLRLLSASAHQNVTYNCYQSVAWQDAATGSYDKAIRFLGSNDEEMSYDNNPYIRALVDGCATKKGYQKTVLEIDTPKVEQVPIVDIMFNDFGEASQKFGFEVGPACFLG
UniProt Q01149, residues 86-1125: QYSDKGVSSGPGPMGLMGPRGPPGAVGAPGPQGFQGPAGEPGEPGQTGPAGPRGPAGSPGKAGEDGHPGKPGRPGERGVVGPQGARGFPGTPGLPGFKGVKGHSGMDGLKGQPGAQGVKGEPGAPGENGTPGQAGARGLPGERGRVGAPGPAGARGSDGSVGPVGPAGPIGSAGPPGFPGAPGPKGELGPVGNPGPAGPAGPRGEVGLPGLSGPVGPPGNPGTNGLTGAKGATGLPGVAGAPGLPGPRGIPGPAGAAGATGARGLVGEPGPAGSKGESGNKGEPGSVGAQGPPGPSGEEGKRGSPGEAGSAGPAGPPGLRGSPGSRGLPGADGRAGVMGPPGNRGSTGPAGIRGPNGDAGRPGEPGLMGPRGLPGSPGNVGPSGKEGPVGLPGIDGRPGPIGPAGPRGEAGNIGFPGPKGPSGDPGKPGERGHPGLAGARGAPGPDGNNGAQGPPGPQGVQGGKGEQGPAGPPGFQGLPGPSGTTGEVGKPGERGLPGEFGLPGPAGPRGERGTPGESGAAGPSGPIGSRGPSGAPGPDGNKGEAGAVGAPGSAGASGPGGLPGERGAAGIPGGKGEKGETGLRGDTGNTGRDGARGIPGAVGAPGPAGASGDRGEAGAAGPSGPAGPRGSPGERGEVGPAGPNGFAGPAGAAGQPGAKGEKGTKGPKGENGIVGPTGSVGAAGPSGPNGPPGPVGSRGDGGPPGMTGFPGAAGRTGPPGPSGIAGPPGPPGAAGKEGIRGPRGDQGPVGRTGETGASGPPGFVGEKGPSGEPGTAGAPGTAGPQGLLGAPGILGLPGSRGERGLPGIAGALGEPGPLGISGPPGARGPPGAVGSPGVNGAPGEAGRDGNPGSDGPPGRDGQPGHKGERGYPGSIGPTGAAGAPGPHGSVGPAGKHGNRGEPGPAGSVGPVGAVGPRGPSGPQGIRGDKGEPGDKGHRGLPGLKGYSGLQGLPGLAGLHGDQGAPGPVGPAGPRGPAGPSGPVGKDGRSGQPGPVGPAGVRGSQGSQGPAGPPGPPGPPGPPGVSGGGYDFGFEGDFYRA
UniProt P09055, residues 21-798: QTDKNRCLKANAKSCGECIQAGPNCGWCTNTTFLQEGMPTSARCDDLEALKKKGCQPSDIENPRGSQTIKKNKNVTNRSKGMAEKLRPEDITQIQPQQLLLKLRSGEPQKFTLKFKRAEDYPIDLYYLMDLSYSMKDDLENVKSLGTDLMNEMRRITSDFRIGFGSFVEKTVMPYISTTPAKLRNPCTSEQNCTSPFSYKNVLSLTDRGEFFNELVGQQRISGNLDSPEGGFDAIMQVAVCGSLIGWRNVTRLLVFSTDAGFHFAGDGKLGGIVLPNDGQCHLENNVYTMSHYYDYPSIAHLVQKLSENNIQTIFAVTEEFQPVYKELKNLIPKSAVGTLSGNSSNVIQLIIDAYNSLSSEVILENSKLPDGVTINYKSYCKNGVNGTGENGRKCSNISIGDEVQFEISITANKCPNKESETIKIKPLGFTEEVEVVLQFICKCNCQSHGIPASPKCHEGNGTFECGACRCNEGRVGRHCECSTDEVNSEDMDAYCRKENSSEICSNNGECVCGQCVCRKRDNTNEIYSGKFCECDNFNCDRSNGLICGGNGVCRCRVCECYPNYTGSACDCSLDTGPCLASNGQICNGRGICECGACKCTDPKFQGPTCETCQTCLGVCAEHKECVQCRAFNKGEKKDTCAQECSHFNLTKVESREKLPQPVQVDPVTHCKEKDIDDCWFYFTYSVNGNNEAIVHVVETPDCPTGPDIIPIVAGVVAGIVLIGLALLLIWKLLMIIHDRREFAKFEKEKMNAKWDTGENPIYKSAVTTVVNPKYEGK

Target: T1, secreted protein acidic and rich in cysteine (SPARC) (mouse (endogenous in mouse prefrontal cortex)) (UniProt P07214)
T1 sequence: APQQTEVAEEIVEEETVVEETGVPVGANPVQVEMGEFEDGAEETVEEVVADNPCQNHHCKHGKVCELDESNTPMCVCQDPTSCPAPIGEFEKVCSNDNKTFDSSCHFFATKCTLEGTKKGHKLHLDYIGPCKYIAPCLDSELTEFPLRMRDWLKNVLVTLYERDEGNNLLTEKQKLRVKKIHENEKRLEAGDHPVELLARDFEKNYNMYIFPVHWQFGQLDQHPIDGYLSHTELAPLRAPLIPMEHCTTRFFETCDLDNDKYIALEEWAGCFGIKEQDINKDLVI
Assay: co-IP

Molecule: COL5A1 (from UniProt O88207 37-1838)
binding: binds

B1: integrin b3 (ITGB3) (protein, UniProt O54890 26-787)
chain: ESNICTTRGVNSCQQCLAVSPVCAWCSDETLSQGSPRCNLKENLLKDNCAPESIEFPVSEAQILEARPLSSKGSGSSAQITQVSPQRIALRLRPDDSKIFSLQVRQVEDYPVDIYYLMDLSFSMKDDLSSIQTLGTKLASQMRKLTSNLRIGFGAFVDKPVSPYMYISPPQAIKNPCYNMKNACLPMFGYKHVLTLTDQVSRFNEEVKKQSVSRNRDAPEGGFDAIMQATVCDEKIGWRNDASHLLVFTTDAKTHIALDGRLAGIVLPNDGHCHIGTDNHYSASTTMDYPSLGLMTEKLSQKNINLIFAVTENVVSLYQNYSELIPGTTVGVLSDDSSNVLQLIVDAYGKIRSKVELEVRDLPEELSLSFNATCLNNEVIPGLKSCVGLKIGDTVSFSIEAKVRGCPQEKEQSFTIKPVGFKDSLTVQVTFDCDCACQAFAQPSSPRCNNGNGTFECGVCRCDQGWLGSMCECSEEDYRPSQQEECSPKEGQPICSQRGECLCGQCVCHSSDFGKITGKYCECDDFSCVRYKGEMCSGHGQCNCGDCVCDSDWTGYYCNCTTRTDTCMSTNGLLCSGRGNCECGSCVCVQPGSYGDTCEKCPTCPDACSFKKECVECKKFNRGTLHEENTCSRYCRDDIEQVKELTDTGKNAVNCTYKNEDDCVVRFQYYEDTSGRAVLYVVEEPECPKGPDILVVLLSVMGAILLIGLATLLIWKLLITIHDRKEFAKFEEERARAKWDTANNPLYKEATSTFTNITYRGT
binding: binds

Continued, values first:

binding: binds
Molecule: COL1A2 (from UniProt Q01149 86-1125)

binding: binds
Molecule: ITGB1 (from UniProt P09055 21-798)
